PubChem BioAssay AID1458 (National Center for Advancing Translational Sciences (NCATS), 2008)
The whole screen tested about 210,000 compounds, of which about 5,900 (2.8%) were called active. Another 5% or so got no clear call; they are omitted. Calls follow the shape of the dose curve; as a rule, active = well fitted activation curve with a large enough effect; inconclusive = small, poorly fitted or top-dose-only effect; inactive = no such curve, though single readings can be large or run the other way. Only a part is listed here, and it is no random draw. Entries without a call were filed so in the source.

Assay: qHTS Assay for Enhancers of SMN2 Splice Variant Expression; also: nearly all actives have a fitted effect of over 55% in size; as to activity change, positive = activation: % of control where 0% means no effect
Details: HEK293 SMN2-luciferase splicing reporter, luminescence, 30-36 h; activity change, positive = activation: at 46.1 µM (top of the series) unless noted
How it was run: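 HEK293 cells carry an SMN2 minigene-luciferase reporter in which exon 7 inclusion puts luciferase in frame. Cells were seeded at 2000 cells/well, attached for 10-12 hours, then exposed to compounds for 30-36 hours at 37C before ONE-Glo luminescence.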
Potency is read from the fitted curve at half-maximal effect.

SMILES	activity change, positive = activation	Potency
O=C(CNS(=O)(=O)c1ccc(C(=O)N2CCCCC2)cc1)N1CCCCC1	-58.4%	
O=C(Oc1cc2oc(=O)cc(-c3ccccc3)c2cc1Cl)C1CCCCC1	inactive: -34%	
Cc1cccc(N(CC(O)Cn2c3ccccc3c3ccccc32)S(=O)(=O)c2ccc(F)cc2)c1 (configuration not stated)	inactive: -92.2%	
Cc1cccc(C)c1OCC(=O)Nc1ncn[nH]1	-1.74%	
COc1cccc(C2OC(=O)c3ccccc3N2C(C)=O)c1OC(C)=O (configuration not stated)	51.8%	
O=C(CSc1nc2scc(-c3ccco3)c2c(=O)n1-c1ccccc1)N1CCOCC1	34.9%	
CN(C)c1ccnc2sc(C(=O)NCc3ccccc3)c(N)c12	43.6%	
Cc1cc(C=C2C(=O)c3ccccc3C2=O)c(C)n1-c1ccc(Cl)cc1	inactive: -60.1%	
CCc1ccccc1N1CC(c2nc3ccccc3n2CCCCOc2ccccc2OC)CC1=O (configuration not stated)	inactive: -73.1%	
COc1ccc(/C=N/NC(=S)Nc2cccc(C(=O)O)c2)cc1		active: 12.6 µM
COc1ccc(C(=O)N(Cc2ccco2)Cc2cccs2)c(O)c1	27%	
CNc1nnc(-c2ccc(OC)cc2)s1		active: 12.6 µM
OC1C=C2CCN3Cc4cc5c(cc4C(C1O)C23)OCO5 (configuration not stated)	inactive: -49%	
COc1cc(C2NC(=S)NC(O)(C(F)(F)F)C2C(=O)c2cccs2)cc(OC)c1O (configuration not stated)	31.8%	
CCCc1[nH]nc2c1C(c1ccc(OCCN3CCOCC3)c(OCC)c1)C(C#N)=C(N)O2 (configuration not stated)	52.9%	
C/C(=N\OC(=O)NC1CCCCC1)c1sc(-c2ccccc2)nc1C	inactive: -54.7%	
O=C(O)c1ccc(N/N=C/c2ccc(C(F)(F)F)cc2)cc1	inactive: -54.6%	
Nc1nc(SCc2ccccc2)[nH]c(=O)c1-c1ccccc1		active: 12.6 µM
Nc1nc(Nc2ccc(Cl)cc2)nc2ccccc12	14.1%	
CC(C)N(Cc1ccccc1)S(=O)(=O)N(C)C	38.3%	
COC(=O)c1ccc(NC(=S)Nc2ccccc2)cc1	inactive: -39.6%	
O=C(CS(=O)(=O)c1ccccc1)N1CCc2ccccc21		active: 14.1 µM
COC(=O)C1=C(C)N(C)C(=S)NC1c1ccc(OC)cc1OC (configuration not stated)	25.8%	
O=C(c1ccco1)N1CCN(Cc2cccc(F)c2)CC1	62.3%	
O=C(N/N=C/c1ccccc1)c1n[nH]c2c1CCCC2		active: 5.01 µM

Two records picked at random from those above:
SMILES	activity change, positive = activation	Potency
O=C(c1ccco1)N1CCN(Cc2cccc(F)c2)CC1	62.3%	
O=C(CS(=O)(=O)c1ccccc1)N1CCc2ccccc21		active: 14.1 µM

(listing goes on)

SMILES	activity change, positive = activation	Potency
CC(=O)Nc1ccc(C)cc1NC(C)=O	35.1%	
O=C(N/N=C/c1c(O)ccc2ccccc12)c1cccc(C(F)(F)F)c1	inactive: -106%	
CCC1C(=O)n2nc(-c3ccccc3)cc2N=C1C (configuration not stated)		active: 12.6 µM
O=C(Cn1cncn1)c1ccc(F)cc1F	39.8%	
Cc1ccc(-c2c(C)n3c4c(=O)n(C)c(=O)n(C)c4nc3n2CCCO)cc1	inactive: -51.3%	
O=C(O)C(=O)/C(=C\c1ccc(Cl)cc1)c1ccc2ccccc2n1		active: 12.6 µM
O=C1CC(c2ccccc2)Cc2nc3ncnn3cc21 (configuration not stated)	30.3%	
CCC(=O)Nc1cccc(C(=O)/C=C/c2cc(Br)ccc2OC)c1	-91.8%	
CC(=O)c1c(C)[nH]c(C(=O)CSc2nnc(-c3ccccc3)n2Cc2ccc3c(c2)OCO3)c1C	36.3%	
CCC(=O)N1CCc2cc(S(=O)(=O)N(CC)c3cccc(C)c3)ccc21	-28.9%	
COCCNS(=O)(=O)c1ccc(-c2ccc(C)cc2)cc1	-65.5%	
CC(C)Cc1nc(NCCN2CCOCC2)c(C#N)c2c1COC(C)(C)C2	34.6%	
COCCn1nnnc1C(c1cc(OC)ccc1OC)N1CCc2ccccc2C1 (configuration not stated)	37.4%	
C=CCn1c(C)cc(-c2csc(NCC)n2)c1C	150%	
Cc1cc(C(=O)CN2C(=O)NC3(CCCc4ccccc43)C2=O)c(C)n1Cc1ccco1 (configuration not stated)	35.5%	
COc1ccc(CCNC(=O)CSc2nnnn2-c2ccc(OC)c(OC)c2)cc1OC	-32.8%	
N#CC/C(N)=N/NC(=O)CCCNc1ncc(C(F)(F)F)cc1Cl		active: 15.8 µM
CC(C)Cn1c(=O)[nH]c2ccccc21	54.9%	
Cc1ccc(/C=C/C(=O)OCC(=O)Nc2cccc(S(=O)(=O)N(C)C)c2)o1	inactive: 5.73%	
O=C(Nc1ccc2c(c1)N(Cc1ccccc1)C(=O)c1ccccc1S2)NC1CC1	-34.5%	
CCN1CCN(CCNC(=O)CSCc2nc(-c3ccc(OC)c(OC)c3)oc2C)CC1	-30.8%	
CCOc1c(Cl)cc(CNc2ccc(S(N)(=O)=O)cc2)cc1OC	-67.1%	
O=C(N/N=C1\CCCc2ccccc21)c1ccc([N+](=O)[O-])cc1		active: 14.1 µM
O=C(Nc1ccc(Cl)cn1)c1ccc(COc2ccccc2Br)o1		active: 12.6 µM
CC(C)C(=O)Nc1cccc(C(=O)Nc2ccc3c(c2)OCO3)c1		active: 15.8 µM

Structural class: the entries above containing a cyano group.
SMILES	activity change, positive = activation	Potency
CCCc1[nH]nc2c1C(c1ccc(OCCN3CCOCC3)c(OCC)c1)C(C#N)=C(N)O2 (configuration not stated)	52.9%	
CC(C)Cc1nc(NCCN2CCOCC2)c(C#N)c2c1COC(C)(C)C2	34.6%	
N#CC/C(N)=N/NC(=O)CCCNc1ncc(C(F)(F)F)cc1Cl		active: 15.8 µM

(listing goes on)

SMILES	activity change, positive = activation	Potency
CCOC(=O)c1nc(S(C)(=O)=O)ncc1Cl	60.7%	
C[C@@H]1OC(OC2CC[C@@]3(C)C(CC[C@@]4(C)C3CC=C3C5CC(C)(C)CC[C@]5(C(=O)OC5OCC(O)[C@@H](O)[C@@H]5OC5O[C@@H](C)[C@H](O[C@H]6OC(CO)C(O)C(O)C6O)C(O)C5O)C(O)C[C@@]34C)C2(C)C)C(O)C(O)[C@H]1OC1OCC(O)C(O)[C@H]1O (some centres not stated)	inactive: -53.1%	
Cc1cc(C)c(C#N)c(SCC(=O)Nc2nnc(-c3ccccc3)s2)n1	30.9%	
Cn1c(N2CCN(c3ccccn3)CC2)nc2c1c(=O)n(Cc1ccc(Cl)cc1)c(=O)n2C	inactive: -56.5%	
COc1ccc(NC(=O)CSc2nc(C)cc(C)n2)cc1	37.4%	
Cc1ccc(S(=O)(=O)N2CCOCC2)cc1NC(=O)CSc1nnc2cc(C)c3ccccc3n12	inactive: -36.9%	
COc1ccccc1NC(=O)C1=C(C)Nc2nc(CCCO)nn2C1c1cccc(O)c1 (configuration not stated)	24.8%	
Cc1cc(N)c2ccccc2[n+]1CCCCCCCCCC[n+]1c(C)cc(N)c2ccccc21		inactive
O=C(CCCCn1c(=O)c2ccccc2n(Cc2ccc(F)cc2)c1=O)NCc1ccco1	32%	
Cc1cc(Br)cc(C)c1OCCCCN(C)C	-76.4%	
CC(=O)Nc1ccc(NC(=O)c2ccc(-n3c(C)ccc3C)cc2)cc1	38%	
COc1ccc(Nc2nc(C)cc(C)c2C#N)cc1	46.8%	
CN(C)c1ccc(/C=C(/NC(=O)c2ccccc2)C(=O)N/N=C/c2ccc([N+](=O)[O-])c(O)c2)cc1	32.8%	
O=C(Nc1ccc(OCC(F)(F)C(F)F)cc1)c1ccncc1	inactive: -66.4%	
Cc1ccc(OCC(=O)c2cc(C)n(-c3ccccc3)c2C)c([N+](=O)[O-])n1	inactive: -57.5%	
O=C(COC(=O)c1cccnc1Nc1ccccc1F)NCCN1C(=O)CSC1=O	20.5%	
CCCC(=O)Nc1ccc2oc(-c3cncc(Br)c3)nc2c1		active: 4.47 µM
COc1ccc(/C=C/C(=O)c2ccc(O)cc2O)cc1OC	inactive: -88.6%	
O=S(=O)(c1ccc(F)c(Cl)c1)N1CCCC1	19.8%	
COc1cc(S(=O)(=O)NCCCN2CCOCC2)ccc1Cl	31.9%	
O=C(c1ccc2c(=O)n(-c3ccccc3)c(=O)[nH]c2c1)N1CCCCC1	-49.8%	
COc1ccc(C(=O)N=c2nc3ccccn3s2)cc1	101%	
CCOc1cc(CNCCSc2nnnn2C)cc(Br)c1OCc1ccccc1	-68.3%	
Oc1ccc(Cl)cc1CNc1ccc(Br)cn1	53.9%	
CCC(=O)N1CCCc2cc(S(=O)(=O)N3CCN(c4ccccn4)CC3)ccc21	-35.2%	

SMILES	activity change, positive = activation	Potency
Cc1ccn2c(Nc3ccc4c(c3)OCO4)c(-c3ccc(N(C)C)cc3)nc2c1		active: 15.8 µM
CCCn1cc(SCC(=O)NCC2CCCO2)c2ccccc21 (configuration not stated)	35.6%	
COc1cccc(NC(=O)Nc2ccc(C)c(Cl)c2)c1		active: 12.6 µM
O=C(NC(=S)Nc1cccnc1)c1cc2ccccc2o1	117%	
Cc1ccc(-c2nnc(N3CCN(C(=O)COc4ccccc4)CC3)c3ccccc23)cc1	inactive: -53.8%	
C[C@H](NC(=O)OC(C)(C)C)c1nnc(SCc2c(F)cccc2Cl)o1	-47.5%	
Cc1nc2ccc(NC(=O)NCCO)cc2s1	36%	
CC(C)(C)NC(=O)C(c1ccco1)N(Cc1ccc2c(c1)OCO2)C(=O)Cn1nnc2ccccc21 (configuration not stated)	39.1%	
COc1ccc(Nc2ccccc2)c(C)c1	32.6%	
O=C(CSc1ccc(F)cc1)N1CCC(c2nc3ccccc3s2)CC1	-53.3%	
Cc1cc(C)c(-c2cc(NC(=O)COC(=O)c3ccc(CO)cc3)n(-c3ccccc3)n2)cc1C	19.3%	
O=C(CCCc1cccs1)Nc1ccc2c(c1)OCO2		active: 14.1 µM
O=C(NO)c1ccccc1O	inactive: -0.224%	
O=C1CC(c2ccco2)Cc2nc(N3CCN(Cc4ccc5c(c4)OCO5)CC3)ncc21 (configuration not stated)	-51.8%	
CCOc1ccc(NC(=O)CN2C(=O)C3CC=CCC3C2=O)cc1 (configuration not stated)	33.4%	
O=C(N/N=C/c1ccc(F)cc1)c1ccccc1		active: 17.8 µM
COC(=O)c1ccc(-n2nnnc2SCc2nn[nH]n2)cc1	30.9%	
Cc1ccc2nc(-c3ccc(SCC(=O)Nc4nc(C)cs4)nc3)[nH]c2c1		active: 6.31 µM
O=C(NCc1ccco1)C1CC(=O)N(c2ccc(O)cc2)C1 (configuration not stated)	39.3%	
CC(C)=N/N=C1/NC(=O)C(CC(=O)Nc2cc(Cl)ccc2C)S1 (configuration not stated)	30.8%	
O=c1c2c3c(sc2nc2sc(C4CC4)nn12)CCCC3		active: 7.94 µM
NC(=S)NNC(=O)c1cccc(Br)c1	inactive: 23.7%	
